Source: article doi:10.1101/2022.11.15.516536
These are yes or no findings as the source states them, for the method shown. Each block holds one binder with its values, some of them ahead of it.

Legend:
[1] = target: Aim18p-Nd70 (S. cerevisiae) (UniProt P38884); assay: SEC
[2] = target: Aim46p-Nd62 (S. cerevisiae) (UniProt P38885); assay: SEC

binding [1]: no binding
B1: Aim18p-Nd70 (domain or fragment, UniProt P38884 71-321)
chain: RDRPVQNDDKTDAFPSHTESIQVDSSVSDFPLTITALNFPVSTTFKLLGYGQRHVTFLRFKVYALGLYLAENDENLVSDTLNETYLHKYFLDVDDSKTPKENLARLLKRDDSKSVMMIDDLLDSGMRMLAKITPVRNTDFKHLKEGLVKTISKHPDVANNKDTLAKGLSELNDAFSRKGSVRKNDDLIIELLANGALQFSYHDSKNNEFEVMGVVNNQLVGKFLFSQYLCGEKSPSPQAKKTAIDKLITLL

binding [2]: no binding
B2: Aim46p-Nd62 (domain or fragment, UniProt P38885 63-310)
chain: DDSQIKKADATSVAVDASISAFPKKMGPPQWPFSTQYELIGKGVRCVSSITFKAYGLGIYVAAEDKHLVSEVLDSKFLSQAFIDTAAPPSPENSHQDNLRAALNDPAKAPILINNLLDSGIRLMSKNTPIKAGSFKLLMDGTKKSVLKNPDSQSQDKDRLEAGFQELHDCFRSVKGLVARDDDFFIELNKDCSMNLSYYARKKDEFVILGTVKEPLIGKLLFAHYLAAVDPPSPEARKEVIDALVSLS
